Experimental data taken from PubChem BioAssay AID200 (DTP/NCI, 2004).
The list does not hold the whole screen: it gathers tests that were run many times, whatever their T/C, doses with no T/C, and many T/C values between a quarter and a half above the control. Other doses and runs of a compound stand elsewhere. T/C: endpoint of the treated group in % of that of the vehicle group. Some entries give survivors of the animals treated and no T/C: the source holds a T/C of zero for them, seemingly a mark for toxic or unscored doses. Some doses without a T/C left all or most animals alive at the check, yet need not have been tolerated: survival well below the control is almost never listed, so the zero probably covers shortened survival too. Survivors were counted at the toxicity check, usually on the fifth day, unless a day is given; later deaths do not show. Schedules are NCI's codes, taken here to give the interval after Q, in days (D) or hours (H), and the number of doses after X. Some doses were run more than once; the results are listed from low to high. For survival time, this PubChem deposit counts one and a half times the control or more as active, and values a quarter to a half above the control carry no call in these data; other NCI protocols may use other cut-offs. Counts like (3×) say how often a value occurs here. Some T/C values are followed by the survivors on the day toxicity was checked, most often the fifth; where none is given, no animal had died by that day.

Test system: B6C3F1 mice, B16 melanoma ip, median survival T/C
Test: NCI In Vivo Anticancer Drug Screen. Data for tumor model B16 Melanoma (intraperitoneal) in B6C3F1 mice
Details: T/C endpoint: median survival time, schedule: Q01DX009 (ip), higher T/C = longer survival
Experimental: The antitumor activity of compounds was measured in mice bearing transplantable tumors. Survival or tumor size were measured and the results are expressed as the measurement made in the treated group (T) divided by the measurement made in the vehicle treated control group (C). The tumor model used in this assay is B16 Melanoma (intraperitoneal) in B6C3F1 mice

[1] = dose: 12.0 mg/kg/injection, vehicle: saline
[2] = dose: 200.0 mg/kg/injection, vehicle: Klucel (hydroxypropylcellulose) (HPC)
[3] = dose: 400.0 mg/kg/injection, vehicle: Klucel (hydroxypropylcellulose) (HPC)
[4] = dose: 100.0 mg/kg/injection, vehicle: saline
[5] = dose: 400.0 mg/kg/injection, vehicle: saline
[6] = dose: 800.0 mg/kg/injection, vehicle: saline
[7] = dose: 100.0 mg/kg/injection, vehicle: Klucel (hydroxypropylcellulose) (HPC)
[8] = dose: 50.0 mg/kg/injection, vehicle: saline with Tween-80
[9] = dose: 100.0 mg/kg/injection, vehicle: saline with Tween-80
[10] = dose: 200.0 mg/kg/injection, vehicle: saline with Tween-80
[11] = dose: 25.0 mg/kg/injection, vehicle: saline
[12] = dose: 50.0 mg/kg/injection, vehicle: saline
[13] = dose: 200.0 mg/kg/injection, vehicle: saline
[14] = dose: 0.06 mg/kg/injection, vehicle: saline + alcohol
[15] = dose: 0.12 mg/kg/injection, vehicle: saline + alcohol

## COc1cc2cc(c1Cl)N1CC(O)C(C)(O)C(=O)NC(C)C(=O)OC(CC1=O)C1(C)OC1C(C)C1CC(O)(NC(=O)O1)C(OC)/C=C\C=C(\C)C2OC (configuration not stated)
dose: 1.0 micrograms/kg/injection, vehicle: distilled water + alcohol
  T/C: 134 and 137 % of control
dose: 2.0 micrograms/kg/injection, vehicle: distilled water + alcohol
  T/C: 147 % of control
dose: 4.0 micrograms/kg/injection, vehicle: distilled water + alcohol
  T/C: 145 % of control
dose: 32.0 micrograms/kg/injection, vehicle: distilled water + alcohol
  survivor count: 10 of 10 and 9 of 9

## COC(COC(=O)N1CCN(C=O)CC1)C1=C(N2CC2)C(=O)C(C)=C(N2CC2)C1=O (configuration not stated)
dose: 0.38 mg/kg/injection, vehicle: saline
  T/C: 125 % of control
dose: 6.0 mg/kg/injection, vehicle: saline
  survivor count: 10 of 10
[1]
  survivor count: 10 of 10

## CCC(C)C(=O)OC1C(=O)OC2CC3C(C)=CC(=O)C(O)C3(C)C3C4(O)OCC23C1C(C)C4O (configuration not stated)
dose: 0.62 mg/kg/injection, vehicle: saline
  T/C: 137 % of control
dose: 1.25 mg/kg/injection, vehicle: saline
  T/C: 125 % of control
dose: 10.0 mg/kg/injection, vehicle: saline
  T/C: 132 % of control [8 of 10 alive]

## CC(C)(C)N(C(=O)OCC1c2ccccc2-c2ccccc21)C(CO)C(=O)O (configuration not stated)
[2]
  survivor count: 10 of 10
[3]
  survivor count: 0 of 10

## O=c1ncccn1[C@@H]1O[C@H](CO)[C@H](O)C1O (some centres not stated)
[4]
  T/C: 128 % of control
[5]
  T/C: 127 % of control
[6]
  T/C: 138 % of control

## CC(C)(C)OC(=O)NCCCCC(NC(=O)OCC1c2ccccc2-c2ccccc21)C(=O)O (configuration not stated)
[7]
  survivor count: 10 of 10

## COc1ccc2c(c1)n([O-])c1ccccc1[n+]2=O
dose: 18.0 mg/kg/injection, vehicle: saline with Tween-80
  T/C: 125 % of control
[8]
  T/C: 134 % of control
[9]
  survivor count: 7 of 10
dose: 138.88 mg/kg/injection, vehicle: saline with Tween-80
  survivor count: 6 of 10
dose: 138.89 mg/kg/injection, vehicle: saline with Tween-80
  survivor count: 9 of 10
[10]
  survivor count: 0 of 10

## OCCN1CCN(CC/C=C2/c3ccccc3Sc3ccc(Cl)cc32)CC1
[11]
  survivor count: 9 of 10
[12]
  survivor count: 7 of 10

## O=NNc1ccc(Cl)cn1
dose: 3.12 mg/kg/injection, vehicle: water
  T/C: 134 % of control
dose: 3.13 mg/kg/injection, vehicle: water
  T/C: 128 % of control
dose: 6.25 mg/kg/injection, vehicle: water
  T/C: 142 % of control (2×)
dose: 12.5 mg/kg/injection, vehicle: water
  T/C: 147 % of control
dose: 25.0 mg/kg/injection, vehicle: water
  survivor count: 8 of 10 and 10 of 10

## CC[C@H](CC[C@@H](C)[C@H]1CC[C@H]2[C@@H]3CC=C4C[C@@H](OC(C)=O)CC[C@]4(C)[C@H]3CC[C@]12C)C(C)C
dose: 25.0 mg/kg/injection, vehicle: Klucel (hydroxypropylcellulose) (HPC)
  survivor count: 10 of 10
dose: 50.0 mg/kg/injection, vehicle: Klucel (hydroxypropylcellulose) (HPC)
  survivor count: 10 of 10
[7]
  survivor count: 10 of 10
[2]
  survivor count: 10 of 10

## C/C(=N\NC(=O)c1ccccc1O)c1cccc(/C(C)=N/NC(=O)c2ccccc2O)n1
[1]
  survivor count: 10 of 10
[11]
  survivor count: 9 of 10
[12]
  survivor count: 9 of 10

## CC(C)CC(NC=O)C(=O)O (configuration not stated)
[2]
  survivor count: 9 of 10
[3]
  survivor count: 8 of 10

## COc1cc(C(=O)N/N=C/c2cccc([N+](=O)[O-])c2)cc(OC)c1OC
[8]
  survivor count: 10 of 10
[9]
  survivor count: 10 of 10
[10]
  survivor count: 10 of 10
dose: 400.0 mg/kg/injection, vehicle: saline with Tween-80
  survivor count: 10 of 10

## CN1CCCN(C(c2ccccc2)c2ccc(Br)cc2)CC1 (configuration not stated)
dose: 72.0 mg/kg/injection, vehicle: saline
  survivor count: 10 of 10

## O=S(=O)(O)C1=CC(=N\Cl)/C=CC/1=N/Cl
dose: 200.0 mg/kg/injection, vehicle: saline + Tween-80 + alcohol
  survivor count: 2 of 9
dose: 400.0 mg/kg/injection, vehicle: saline + Tween-80 + alcohol
  survivor count: 0 of 10

## NC(N)=O
[6]
  survivor count: 3 of 10

## COC(=O)Nc1nc2ccc(SC)cc2c(=O)[nH]1
[7]
  survivor count: 10 of 10
[3]
  survivor count: 10 of 10

## BrC1c2cccc3cccc(c23)C1Br (configuration not stated)
dose: 6.25 mg/kg/injection, vehicle: saline with Tween-80
  T/C: 135 % of control
dose: 12.5 mg/kg/injection, vehicle: saline with Tween-80
  T/C: 127 % of control
dose: 25.0 mg/kg/injection, vehicle: saline with Tween-80
  T/C: 133 and 137 % of control
[8]
  T/C: 134 % of control
[9]
  T/C: 144 % of control
  survivor count: 10 of 10
[10]
  survivor count: 5 of 10 and 10 of 10

## O=C1NC(=O)C2(CCc3ccc(N(CCCl)CCCl)cc32)N1 (configuration not stated)
dose: 3.0 mg/kg/injection, vehicle: saline with Tween-80
  T/C: 137 % of control
dose: 6.0 mg/kg/injection, vehicle: saline with Tween-80
  T/C: 145 % of control

## CC(C)CC(NC(=O)CNC(=O)CNC(=O)OCc1ccccc1)C(=O)O (configuration not stated)
dose: 12.0 mg/kg/injection, vehicle: Klucel (hydroxypropylcellulose) (HPC)
  T/C: 127 % of control

## O=C1CCC(=O)N1CO
[13]
  T/C: 133 % of control
[5]
  T/C: 137 % of control [9 of 10 alive]

## NCCCNCCCCNC(=O)C(O)NC(=O)CCCCCCN=C(N)N (configuration not stated)
[11]
  T/C: 126 % of control
[12]
  survivor count: 0 of 10
[4]
  survivor count: 0 of 10

## Nc1nc(=S)c2ncn(C3OC(COC(=O)c4ccccc4)C(OC(=O)c4ccccc4)C3OC(=O)c3ccccc3)c2[nH]1 (configuration not stated)
[9]
  survivor count: 10 of 10

## COCCOC(=O)Cc1ccc(OC)c(OC)c1
[4]
  survivor count: 9 of 10
[13]
  survivor count: 8 of 10

## COC(=O)[C@@]12OC[C@]34[C@H]([C@@H](O)[C@@H]1O)[C@@]1(C)CC(=O)C(O)=C(C)[C@@H]1C[C@H]3OC(=O)[C@H](OC(=O)/C=C(\C)C1(C)CO1)[C@@H]24 (some centres not stated)
dose: 0.01 mg/kg/injection, vehicle: saline + alcohol
  T/C: 136 % of control [9 of 10 alive]
dose: 0.03 mg/kg/injection, vehicle: saline + alcohol
  T/C: 129 % of control [9 of 10 alive]
[14]
  T/C: 131 % of control
  survivor count: 10 of 10
[15]
  T/C: 143 % of control
  survivor count: 2 of 10 and 5 of 10
dose: 0.25 mg/kg/injection, vehicle: saline + alcohol
  survivor count: 2 of 10
dose: 0.5 mg/kg/injection, vehicle: saline + alcohol
  survivor count: 0 of 10 and 7 of 10
dose: 1.0 mg/kg/injection, vehicle: saline + alcohol
  survivor count: 4 of 10
dose: 2.0 mg/kg/injection, vehicle: saline + alcohol
  survivor count: 0 of 10
dose: 4.0 mg/kg/injection, vehicle: saline + alcohol
  survivor count: 0 of 10
